From PubChem BioAssay AID2685 (National Center for Advancing Translational Sciences (NCATS), 2010)
In all, about 320,000 compounds went through this assay and about 2,100 (0.66%) were called active. The inconclusive results got no clear call from the source; some entries with a clear call stand among them for comparison. Calls come from the whole dose curve; as a rule, active = well fitted inhibition curve with a large enough effect in the signal ratio, with a control signal flat (not every such curve was filed as active); inconclusive = small, poorly fitted or top-dose-only effect, or effect the other way, or a change in a side signal; inactive = flat fitted curve, though single readings scatter; the % refers to the signal ratio. Where the call is inconclusive, the potency comes from a doubtful curve fit.

Assay: qHTS Assay for Lipid Storage Modulators in Drosophila S3 Cells
Details: BODIPY lipid droplet fluorescence, 18-24 h, cells fed with added oleic acid; lipid storage change, negative = inhibition: at 46.1 µM (top of the series) unless noted
In short: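 Drosophila S3 cells got compounds at several concentrations plus oleic acid (400 uM solution). Laser-scanning cytometry with 488 nm excitation read lipid droplets at 500-530 nm and cells at 575-640 nm. Percent activity was relative to 20 uM Triacsin C.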
% is set by controls: 0 for no effect and ±100 for the full control effect; potency is the fitted concentration of half-maximal effect.

SMILES	lipid storage change, negative = inhibition	Potency	outcome
CC(C)COC(=O)Cc1c(O)c2ccccc2[nH]c1=O	inconclusive: 44.9%		
COC(=O)c1cc(C)ccc1OCc1ccc([N+](=O)[O-])cc1	inconclusive: 27.4%		
CN(C)c1cnn(-c2ccccc2)c(=O)c1Cl	inconclusive: 16.4%		
COc1ccc(CNS(=O)(=O)c2cc(-c3cc(C)no3)ccc2C)cc1OC		inconclusive: 29.1 µM [falling, single point]	
COc1ccccc1CCNC(=O)c1ccc(NC(=O)CC2SC(N3CCCCC3)=NC2=O)cc1 (configuration not stated)		inconclusive: 6.51 µM [activator, single point]	
O=C(NC(Cc1ccccc1)C(=O)OCC(=O)N1CCc2ccccc21)c1ccco1 (configuration not stated)	inconclusive: 86.3%		
CSc1ccccc1C(=O)NCc1ccc(C)cc1		inconclusive: 6.51 µM [cytotoxic, single point]	
Cc1cc(C(=O)OCC(=O)Nc2ccc(F)cc2[N+](=O)[O-])c2ccccc2n1	inconclusive: 17.3%		
Cc1ccccc1NC(=S)Nn1cnnc1	inconclusive: 3.33%		
CNC(=O)Nc1ccc(Cn2cc(C(F)(F)F)ccc2=O)cc1	inconclusive: -1.48%		
Cc1cc(C)nc(Nc2n[nH]c(-c3ccccc3Br)n2)n1		inconclusive: 1.16 µM [activator, full curve]	
Cc1ccccc1CNC(=O)Cn1ccc2cc(S(=O)(=O)N3CCCCCC3)ccc21	inconclusive: 3.83%		
O=C(Cn1cnc2ccccc2c1=O)NC1CCCc2ccccc21 (configuration not stated)	inconclusive: 60.5%		
CN(Cc1ccccc1)C(=O)C1CCN(S(=O)(=O)c2cccc3nsnc23)CC1		inconclusive: 3.26 µM [falling, partial curve]	
Cc1ccc(S(=O)(=O)N2CCC(=O)N(C(COCc3cccc(Cl)c3)Cc3ccccc3)CC2)cc1 (configuration not stated)	inconclusive: 3.31%		
Cc1ccc(NS(=O)(=O)c2ccc(NS(=O)(=O)c3cccs3)cc2)cc1			inactive [at 46.1 µM]
Cc1cc(C)c2oc(C(=O)N(Cc3cccs3)C3CCS(=O)(=O)C3)cc(=O)c2c1 (configuration not stated)	inconclusive: 41.2%		
CCOc1ccc(N(CC(=O)NC2CCCC2)S(=O)(=O)c2ccccc2)cc1		active: 2.59 µM	
O=C(CN(C(=O)CNS(=O)(=O)c1ccccc1)c1ccc(F)cc1)NCc1ccco1	inconclusive: -41.4%		
COc1ccc(CCNC(=O)c2cccc(NC(=O)CC3SC(N4CCCCC4)=NC3=O)c2)cc1OC (configuration not stated)	inconclusive: -7.01%		
C/C(CCC(=O)OC[C@H]1O[C@H](C#Cc2ccccc2)C=C[C@@H]1Oc1ccc(C)cc1)=N\O[C@@H](C)CN1CCCCc2nc(C)c(C)cc21		inconclusive: 7.31 µM [activator, partial curve]	
CS(=O)(=O)N(CC(=O)NCc1ccc2c(c1)OCO2)c1cccc(Cl)c1	inconclusive: 24.5%		
COc1cccc(CC(=O)OCC(=O)NC(C)c2ccc(F)cc2)c1 (configuration not stated)		inconclusive: 2.59 µM [falling, full curve]	
COc1ccc(C(=O)NCCS(=O)(=O)N2CCc3ccccc3C2)c(OC)c1	inconclusive: -74.1%		

SMILES	lipid storage change, negative = inhibition	Potency	outcome
Cc1c(Nc2scc(-c3ccccc3)[n+]2-c2ccccc2)c(=O)n(-c2ccccc2)n1C	inconclusive: 9.76%		
Cc1cc(C)cc(NC(=O)c2ccc(Cn3nc(C)c(Cl)c3C)o2)c1		inconclusive: 29.1 µM [cytotoxic, single point]	
O=C1Nc2ccc([N+](=O)[O-])cc2C1=Nc1cccc(CO)c1	inconclusive: 18.3%		
COc1ccccc1OCCNC(=O)c1cccc(S(=O)(=O)N2CCN(Cc3ccccc3)CC2)c1	inconclusive: 23.4%		
Cn1c(COc2ccccc2)nc2ccccc21	inconclusive: 19.8%		
CC1CN(S(=O)(=O)N2CCOCC2)CCN1S(=O)(=O)N1CCOCC1 (configuration not stated)	inconclusive: -58.1%		
OCCN1CCN(CC(O)COc2ccc(Cl)cc2)CC1 (configuration not stated)	inconclusive: -175%		
CCCN(CCC)CCCNC(=O)C1CCN(S(=O)(=O)c2cccc3nsnc23)CC1	inconclusive: -32.6%		
O=C(CCc1ccc(S(=O)(=O)NCCc2ccccc2)cc1)NCc1ccc2c(c1)OCO2		inconclusive: 4.61 µM [activator, partial curve]	
CCN(CC)S(=O)(=O)c1ccc(OCC(=O)NC(=O)Cc2ccccc2)c([N+](=O)[O-])c1		inconclusive: 0.231 µM [falling, full curve, poor fit]	
COc1ccccc1NC(=O)NNC(=O)c1ccc2c(c1)NC(=O)C(C)(C)O2		inconclusive: 0.116 µM [activator, single point]	
COc1ccc(CCCc2nnc(SCc3nc4ccccc4c(=O)[nH]3)n2C)cc1C	inconclusive: 15.8%		
Cc1cc(C)c(S(N)(=O)=O)c(C)c1-n1cnnn1	inconclusive: 19.4%		
O=C(O)CC(NC(=O)c1ccco1)c1ccco1 (configuration not stated)			inactive [at 46.1 µM]
Cc1ccc(S(=O)(=O)NC(=O)NCc2ccccn2)cc1	inconclusive: -2.77%		
O=C(O)c1ccccc1N/N=C/c1c(Sc2nnnn2-c2ccccc2)nc2ccccn2c1=O	inconclusive: -52.4%		
Cc1ccc(C)c(N)c1	inconclusive: -35.2%		
C/C(=N\NC(=O)C1CC1)c1cccc(NC(=O)c2cccc(Cl)c2)c1		inconclusive: 25.9 µM [falling, single point]	
Cc1ccc(C(=O)N/C(=C/c2cccnc2)C(=O)N2CCCCCC2)cc1		inconclusive: 6.51 µM [activator, single point]	
Cc1cc(C)c(C#N)c(SCC(=O)Nc2cccc(S(=O)(=O)N3CCCC3)c2)n1	inconclusive		
CCN1CCN(Cc2coc3ccc(C)cc3c2=O)CC1		inconclusive: 20.6 µM [falling, single point]	
Nc1cccc(Nc2nc(OC(C(F)(F)F)C(F)(F)F)nc(OC(C(F)(F)F)C(F)(F)F)n2)c1		inconclusive: 29.1 µM [falling, single point]	
COc1ccc(/C=N/NC(=O)c2ccc(O)cc2O)cc1CSc1ccccn1		inconclusive: 11.6 µM [activator, partial curve]	

Copied from the list:
Potency with C/C(=N\NC(=O)C1CC1)c1cccc(NC(=O)c2cccc(Cl)c2)c1 is entered as inconclusive: 25.9 µM [falling, single point]
lipid storage change, negative = inhibition with Cc1ccc(C)c(N)c1 is entered as inconclusive: -35.2%
